For at least one compound, name, drawing or mass did not settle the structure.
Molecular target: T1, CarNi (Nocardia iowensis carboxylic acid reductase) (Nocardia iowensis, UniProt Q6RKB1)
T1 construct: made in house; host or cells: E. coli BL21 Star (DE3) harboring pET/His-Car-RBS2-Sfp
Assay type: biochemical
Settings: 13 straight and branched acids from C2-C8
Protocol: Strain M4 expressing car-sfp-ADH6 was fed five different acids at 10 mM initial concentration. Selectivity was determined by measuring normalized titers 5 hours post induction of gene expression. […] Initial rates were measured by monitoring NADPH consumption by measuring absorption at 340 nm.
Assays were devised to confirm activity on desired substrates in vitro and in vivo. In the first, N-terminal his-tagged CarNi was purified and assayed by UV absorption of NADPH with 13 straight and branched acids from C2-C8. […] A complementary in vivo assay was designed to examine the effectiveness of the Module 4 pairing. Butyrate, valerate. 3-methyl-valerate, 4-methyl-valerate, and hexanoate were fed to E. coli cultures expressing CarNi/ADH6Sc and conversion was monitored by sampling the culture media and liquid chromatography (LC).
Relative Activity Assay for Purified his-Car: An overnight culture of BL21 Star (DE3) (Invitrogen) harboring pET/His-Car-RBS2-Sfp was used as 10% (v/v) inoculum in 2 L of LB Broth. The culture was incubated at 30° C. and 250 rpm, and expression was induced using a final concentration of 1 mM IPTG at OD 0.6. […] The activity of His-Car on various substrates was determined by changes in absorbance at 340 nm for up to 5 minutes in 96-well microplates using a plate reader (Tecan Infinite F200 Pro). […] Changes in absorbance at 340 nm were detected using a filter. […]

Protein sequences, listed by entry. Tags and fused reporters are not part of them. Lines headed by an entry give the natural chain unless they say otherwise; changes in a name come on top.
UniProt Q6RKB1: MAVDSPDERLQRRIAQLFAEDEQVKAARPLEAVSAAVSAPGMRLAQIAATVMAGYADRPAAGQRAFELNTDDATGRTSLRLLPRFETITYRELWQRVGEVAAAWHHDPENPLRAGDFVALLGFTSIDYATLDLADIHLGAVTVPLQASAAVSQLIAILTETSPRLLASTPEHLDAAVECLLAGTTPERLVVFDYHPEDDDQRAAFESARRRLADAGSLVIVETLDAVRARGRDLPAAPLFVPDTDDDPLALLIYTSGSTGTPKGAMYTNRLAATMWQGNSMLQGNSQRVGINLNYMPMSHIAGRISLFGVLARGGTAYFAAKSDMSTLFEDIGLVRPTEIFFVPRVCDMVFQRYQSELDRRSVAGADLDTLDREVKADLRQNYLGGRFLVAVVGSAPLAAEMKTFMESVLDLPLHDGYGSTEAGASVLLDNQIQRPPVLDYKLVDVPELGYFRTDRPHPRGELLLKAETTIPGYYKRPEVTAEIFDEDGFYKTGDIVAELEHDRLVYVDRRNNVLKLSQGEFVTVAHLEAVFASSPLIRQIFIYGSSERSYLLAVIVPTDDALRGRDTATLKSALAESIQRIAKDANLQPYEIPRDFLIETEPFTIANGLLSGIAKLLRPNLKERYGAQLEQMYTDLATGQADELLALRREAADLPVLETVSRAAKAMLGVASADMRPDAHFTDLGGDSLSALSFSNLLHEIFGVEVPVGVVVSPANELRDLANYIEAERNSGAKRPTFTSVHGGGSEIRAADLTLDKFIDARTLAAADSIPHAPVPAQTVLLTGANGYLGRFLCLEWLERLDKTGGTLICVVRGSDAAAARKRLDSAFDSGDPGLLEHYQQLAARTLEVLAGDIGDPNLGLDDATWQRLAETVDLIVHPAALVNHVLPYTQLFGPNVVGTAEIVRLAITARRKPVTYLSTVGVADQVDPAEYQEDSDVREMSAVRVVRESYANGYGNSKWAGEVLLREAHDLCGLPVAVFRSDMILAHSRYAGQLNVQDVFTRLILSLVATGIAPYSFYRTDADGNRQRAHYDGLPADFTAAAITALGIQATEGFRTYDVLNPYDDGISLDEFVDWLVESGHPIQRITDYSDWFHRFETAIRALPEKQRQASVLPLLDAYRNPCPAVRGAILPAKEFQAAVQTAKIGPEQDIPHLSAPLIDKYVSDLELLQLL

CCCC(=O)O [butyrate]
CarNi activity on aliphatic acid substrate: reduced activity
